Data reported in PubChem BioAssay AID504834 (National Center for Advancing Translational Sciences (NCATS), 2011).
In all, about 320,000 compounds went through this assay and about 22,000 (6.9%) were called active. The inconclusive results got no clear call from the source; some entries with a clear call stand among them for comparison. Calls follow the shape of the dose curve; as a rule, active = well fitted inhibition curve with a large enough effect; inconclusive = small, poorly fitted or top-dose-only effect, or another doubt; inactive = no such curve, though single readings can be large or run the other way. Potencies beside an inconclusive call are fits to weak or partial responses and may not hold up.

Experiment: Primary qHTS for delayed death inhibitors of the malarial parasite plastid, 96 hour incubation
Conditions: P. falciparum luciferase reporter growth; series mostly up to 28.7 µM
In short: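 Erythrocytes infected with luciferase-expressing P. falciparum were dispensed at 2% hematocrit and 0.05% parasitemia (final), then incubated with compounds 96 hours at 37 C in 5% CO2. Luminescence after detection reagent addition reported growth.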
% is scaled to controls: 0 for no effect and ±100 for the full control effect; potency is read from the fitted curve at half-maximal effect.

SMILES | Potency | activity change, negative = inhibition
CCc1ccc(S(=O)(=O)NC2CC(C)(C)NC(C)(C)C2)cc1 | inactive | –
O=C(COC(=O)c1ccc(S(=O)(=O)N2CCOCC2)cc1)Nc1nc(-c2ccccc2)cs1 | inconclusive: 18.5 µM [inhibitor, single point] | –
CC(=O)Oc1cccc(N2C(=O)C3C4C=CC(C4=C(C)C)C3C2=O)c1 (stereo not drawn) | inactive | –
CNC(=S)N(CCc1c(C)[nH]c2ccc(C)cc12)Cc1cccs1 | inconclusive: 18.5 µM [inhibitor, single point] | –
Cc1ccccc1NC(=O)c1ccc2c(O)c(S(=O)(=O)c3ccccc3)c(=O)[nH]c2c1 | inconclusive: 18.5 µM [inhibitor, partial curve, poor fit] | –
COc1ccc(/C=C/C(=O)NC(=S)NN2CCCCC2c2cccnc2)cc1OC (stereo not drawn) | inconclusive: 9.28 µM [inhibitor, partial curve] | –
C=CCN=C1S/C(=C/c2ccc([N+](=O)[O-])cc2)C(=O)N1CC=C | inconclusive: 16.5 µM [inhibitor, single point] | –
O=C(COc1ccccc1Cl)N(Cc1ccco1)C1CCS(=O)(=O)C1 (stereo not drawn) | inconclusive: 2.33 µM [inhibitor, single point] | –
O=C(c1ccc(Cl)cc1)N1CCN(c2ccnc3cc(Cl)ccc23)CC1 | inactive | –
COc1cc(C2CC(=O)N(c3ccc(C)cc3)C(=O)C2)cc(OC)c1OC | inactive | –
COc1cccc(N2C(=NC(=O)CCc3ccccc3)SC3CS(=O)(=O)CC32)c1 (stereo not drawn) | inconclusive: 18.5 µM [inhibitor, single point] | –
COc1ccccc1C(C)NC(=O)c1cc(=O)[nH]c2ccccc12 (stereo not drawn) | inconclusive: 11.7 µM [inhibitor, single point] | –
CCN(CC(=O)Nc1ccc(OC)cc1)C(=O)CSCC(=O)Nc1cc(C)on1 | inactive | –
COc1ccc(O)c(C(=O)c2cc(C#N)c(=O)n(Cc3ccccc3)c2)c1 | inconclusive: 4.15 µM [inhibitor, single point] | –
C=CCOC(=O)/C(=C\c1ccccc1)NC(=O)c1ccco1 | inconclusive: 18.5 µM [inhibitor, single point] | –
COc1ccc(S(=O)(=O)Oc2ccc(C(=S)N3CCOCC3)cc2OC)cc1 | inconclusive: 18.5 µM [inhibitor, single point] | –
C[C@H](NC(=O)[C@@H]1CSC2c3ccccc3C(=O)N21)C(=O)NC1CCCC1 (stereo partly drawn) | inactive | –
O=C(COc1cc2oc(=O)c3c(c2cc1Cl)CCC3)NCCCn1ccnc1 | inconclusive: 18.5 µM [inhibitor, single point] | –
CCNC(=S)NNC(=O)c1cc(-c2cccc(C)c2)nc2ccccc12 | inconclusive: 18.5 µM [inhibitor, single point] | –
CC(=O)Nc1ccc(CC(=O)O)cc1 | inconclusive: 4.26 µM [inhibitor, full curve] | –
O=C(CNC(=O)c1ccc(Cl)cc1)N/N=C/C=C/c1ccccc1 | inactive | –
CC(C)(C)NC(=O)CN(C(=O)c1ccc(Cl)nc1)c1cccc2ccccc12 | inconclusive: 8.28 µM [inhibitor, partial curve, poor fit] | –
CC(C)(C)c1cc[n+](-c2nc([O-])sc2C=O)cc1 | inconclusive: 5.22 µM [inhibitor, partial curve] | –

Record cards (already shown). Order of values: Potency | activity change, negative = inhibition
COc1ccccc1C(C)NC(=O)c1cc(=O)[nH]c2ccccc12 (stereo not drawn) as listed: inconclusive: 11.7 µM [inhibitor, single point] | –
CC(=O)Oc1cccc(N2C(=O)C3C4C=CC(C4=C(C)C)C3C2=O)c1 (stereo not drawn) as listed: inactive | –
O=C(COc1ccccc1Cl)N(Cc1ccco1)C1CCS(=O)(=O)C1 (stereo not drawn) as listed: inconclusive: 2.33 µM [inhibitor, single point] | –
COc1ccc(/C=C/C(=O)NC(=S)NN2CCCCC2c2cccnc2)cc1OC (stereo not drawn) as listed: inconclusive: 9.28 µM [inhibitor, partial curve] | –

Next records.

SMILES | Potency | activity change, negative = inhibition
Cc1[nH]n(-c2ccccc2)c(=O)c1/C=N/NC(=O)c1ccoc1C | inconclusive: 18.5 µM [inhibitor, single point] | –
Cc1cc(NC(=O)CN2CC(C)OC(C)C2)n(-c2nc3ccccc3s2)n1 (stereo not drawn) | – | inactive: 16.5% [at 5.75 µM]
N#Cc1cccc(NC(=O)CN2C(=O)NC3(CCCCCC3)C2=O)c1 | inconclusive: 13.1 µM [inhibitor, single point] | –
Cc1cc(C(=O)NC2CCCN(Cc3ccc(Cl)cc3)C2)c(C)o1 (stereo not drawn) | inconclusive: 20.8 µM [inhibitor, partial curve, poor fit] | –
CC(=O)c1ccc(OCC(O)CN2CCN(CCO)CC2)cc1 (stereo not drawn) | inconclusive: 13.1 µM [inhibitor, single point] | –
C=CCn1nc(-c2ccccc2)c(N2CCCCC2)cc1=O | inconclusive: 3.29 µM [inhibitor, partial curve, poor fit] | –
C=CCn1c(SCC(=O)N2CCOCC2)nc2sc(C)c(C)c2c1=O | inactive | –
CCc1ccc(C(=O)NC(=S)Nc2ccc3c(c2)OCCO3)cc1 | active: 8.28 µM | –
C=CCn1cc(CN2CCC(C(=O)Nc3ccc(Oc4cccnc4)cc3)CC2)c(C)n1 | inconclusive: 10.4 µM [inhibitor, partial curve] | –
O=C(C1=C[C@@H](C2CCCCC2)C[C@@H](OCc2ccc(CO)cc2)O1)N1CCOCC1 | inconclusive: 18.5 µM [inhibitor, single point] | –
COC(=O)CN1C(c2ccc(OC)cc2)=Nc2ccc(Cl)cc2C1c1ccccc1 (stereo not drawn) | active: 10.4 µM | –
COc1ccc(OCC(O)COc2ccc(OC)cc2)cc1 | inactive | –
CC[C@@]12C(=O)N(c3cccc(F)c3)C(=O)N1[C@H](c1ccc(OC)cc1)[C@@H]1C(=O)N(C(C)(C)C)C(=O)[C@@H]12 | inconclusive: 18.5 µM [inhibitor, single point] | –
COc1cc(SC)ccc1C(=O)Nc1ccccc1 | inconclusive: 1.04 µM [inhibitor, full curve, poor fit] | –
O=C(NC1CCN(S(=O)(=O)c2ccc(F)cc2)CC1)c1ccccc1 | inactive | –
Cc1cc(OCC(=O)NCc2ccncc2)c2c3c(c(=O)oc2c1)CCCC3 | inconclusive: 18.5 µM [inhibitor, single point] | –
O=C(COC(=O)c1cc([N+](=O)[O-])ccc1NCCO)c1ccc(Cl)cc1 | inconclusive: 13.1 µM [inhibitor, single point] | –
Cc1ccc(-c2csc3ncn(Cc4ccc(C(=O)O)cc4)c(=O)c23)cc1C | active: 11.7 µM | –
O=S1(=O)CCO[C@H]2Cc3ccccc3[C@H]2N1Cc1ccccc1F | inactive | –
CC(C)NC(=O)c1sc2c(c1C(=O)Nc1cccnc1)CCCC2 | inconclusive: 11.7 µM [inhibitor, partial curve, poor fit] | –
O=C(COC(=O)C1CC1)Nc1c(Cl)cccc1C(F)(F)F | inactive | –
CN(c1ccccc1)S(=O)(=O)c1cccc(NC(=O)CSc2nnc(N)s2)c1 | inconclusive: 13.1 µM [inhibitor, single point] | –
CCc1c(C)[nH]c2ccc(C)cc2c1=O | inactive | –

SMILES | Potency | activity change, negative = inhibition
COc1ccccc1NC(=O)OCC#CCOC(=O)Nc1ccccc1OC | inactive | –
CCCCOc1ccc(Nc2nc(C)cc(C)c2C#N)cc1 | active: 10.4 µM | –
CN1CCN(C(=O)CCCN2C(=O)/C(=C/c3ccccc3)SC2=S)CC1 | inconclusive: 3.29 µM [inhibitor, partial curve, poor fit] | –
COC(=O)C1=C(c2ccc(OC(F)(F)F)cc2)C[C@@H]2CC[C@H]1N2C(=O)NCCOc1ccccc1Cl | inconclusive: 7.38 µM [inhibitor, partial curve, poor fit] | –
COc1ccc(NC(=S)NCCN2CCC(C)CC2)cc1 | inconclusive: 1.65 µM [inhibitor, full curve, poor fit] | –
O=C(Nc1ccc(Cl)c(C(F)(F)F)c1)C1CCCN(S(=O)(=O)c2cnc[nH]2)C1 (stereo not drawn) | active: 10.4 µM | –
CCc1nnc(NS(=O)(=O)c2ccc(NC(=S)NC(=O)/C=C/c3ccc(OC)cc3)cc2)s1 | inconclusive: 9.28 µM [inhibitor, single point] | –
O=S(=O)(c1ccc(Cl)cc1)N1CCC(O)(CN2CCN(Cc3ccccc3)CC2)CC1 | inactive | –
CCN(CC)c1ccc(C(=O)NNC(=O)c2ccc3c(=O)n4c(nc3c2)CCC4)cc1 | inconclusive: 18.5 µM [inhibitor, single point] | –
COc1cccc(-c2c(-c3cc(OC)cc(OC)c3)n(C)c3ccc(-c4ccc(OC)nc4)cc23)c1 | inconclusive: 0.37 µM [inhibitor, full curve, poor fit] | –
COc1ccc(S(=O)(=O)N(C)C)cc1NC(=O)Cc1ccc(S(=O)(=O)N2CCOCC2)s1 | inconclusive: 6.57 µM [inhibitor, partial curve, poor fit] | –
O=C(NC1CCCC1)C(c1cccs1)N(C(=O)c1ccco1)c1ccc2c(c1)OCCO2 (stereo not drawn) | inactive | –
CCOc1ccc(Cn2c(=O)sc3ccccc32)cc1OC | inconclusive: 18.5 µM [inhibitor, single point] | –
O=C(CSc1ccc(-c2ccccc2)nn1)c1ccccc1 | inactive | –
CN(C)c1ccc(N=Cc2ccco2)cc1 | inconclusive: 18.5 µM [inhibitor, single point] | –
CN(C)S(=O)(=O)c1cccc(NC(=O)CNC2CCCCC2)c1 | inactive | –
CC(OC(=O)CN1C(=O)c2ccccc2C1=O)C(=O)N(C)c1ccccc1 (stereo not drawn) | inactive | –
COc1ccc(/C=N/NC(=O)c2ccco2)cc1OCc1ccccc1 | inconclusive: 18.5 µM [inhibitor, single point] | –
Cc1c(OCC(=O)NCC2CCC(C(=O)NCCCO)CC2)ccc2c(-c3ccccc3)cc(=O)oc12 (stereo not drawn) | inconclusive: 5.22 µM [inhibitor, partial curve, poor fit] | –
Cc1nnsc1-c1nnc(SCC(=O)c2ccccc2)n1C1CC1 | inconclusive: 20.8 µM [inhibitor, partial curve, poor fit] | –
O=C(NC1CCCCC1)c1cc([N+](=O)[O-])ccc1N1CCCCC1 | inconclusive: 14.7 µM [inhibitor, single point] | –
Cc1ccc(C(=O)NN=C2CCCCCC2)s1 | inactive | –
